Experimental findings from patent publication US20070292434A1 (VIB VZW, published 2007) are described below.

By UniProt entry, the sequences of proteins in these tests, tags left out. Where a name states a change or a piece, a line headed by the entry shows the natural chain unless it says otherwise. Residues count along the entry.
UniProt P41160, residues 22-167: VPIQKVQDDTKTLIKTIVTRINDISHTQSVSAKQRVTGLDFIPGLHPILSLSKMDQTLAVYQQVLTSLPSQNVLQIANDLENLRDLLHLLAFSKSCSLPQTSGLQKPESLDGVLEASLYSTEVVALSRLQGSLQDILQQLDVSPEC

No constants are given. Whether binding was seen depends on the method and setting. For some of these results: Binding seen in cells or lysates may run through a third protein. Some binding calls cover weakened binding; strength is not graded here. For some of these results: Sequences can lack the tags named with a protein.

In assay [1] the target is wild-type murine leptin receptor (mLR), long isoform (murine) (UniProt P48356). Nature of the assay: leptin-SEAP binding to transfected Hek293T cells, alkaline phosphatase read-out.
Assay [2] concerns the target CRH2-FLAG-His (murine) (UniProt P48356). Nature of the assay: His/SEAP co-precipitation with metal affinity resin; seen only when both proteins were co-expressed in the same cell.
For assay [3], the target named is wild-type murine leptin receptor (mLR), long isoform (murine) (UniProt P48356). In words: non-reducing SDS-PAGE and anti-FLAG Western blot of COS-1 lysates (self-association, disulphide-linked). For orientation: In western blotting, separated proteins are transferred to a membrane and probed.
The target in assay [4] is T1, FNIII-FLAG-His (murine) (UniProt P48356).
T1 sequence (looked up): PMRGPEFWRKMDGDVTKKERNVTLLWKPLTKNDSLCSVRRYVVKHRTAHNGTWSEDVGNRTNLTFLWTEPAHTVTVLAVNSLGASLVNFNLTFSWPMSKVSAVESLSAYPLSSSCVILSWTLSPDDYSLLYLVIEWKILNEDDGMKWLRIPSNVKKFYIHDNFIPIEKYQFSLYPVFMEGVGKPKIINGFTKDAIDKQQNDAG
Nature of the assay: His/SEAP co-precipitation with Ni2+ affinity resin from supernatants of co-transfected Hek293T cells.

“mouse leptin-SEAP chimeric protein (from UniProt P41160 22-167) (ligand)”: the binding result in assay [1] is given as “binds”. On to “CRH2-SEAP-FLAG (from UniProt P48356 428-635) (receptor)”, for which the binding entry in assay [2] was “binds”.

Consider “wild-type murine leptin receptor (mLR), long isoform (from UniProt P48356 22-1162)”, for which the binding result in assay [3] is “binds”.

B1: FNIII-FLAG-His (receptor, murine, UniProt P48356 637-839, looked up, not shown: small tags and cut ends)
chain: PMRGPEFWRKMDGDVTKKERNVTLLWKPLTKNDSLCSVRRYVVKHRTAHNGTWSEDVGNRTNLTFLWTEPAHTVTVLAVNSLGASLVNFNLTFSWPMSKVSAVESLSAYPLSSSCVILSWTLSPDDYSLLYLVIEWKILNEDDGMKWLRIPSNVKKFYIHDNFIPIEKYQFSLYPVFMEGVGKPKIINGFTKDAIDKQQNDAG
notes: domain: FNIII domains; Secreted from COS-1 or Hek293T cells; runs as di-, tri- and higher order disulphide-linked clusters under non-reducing conditions; also called mLR FNIII-FLAG-His; soluble FNIII domains
B1: the binding entry in assay [4] is recorded as “binds”.
